Paper PMC7290792
No constants are given. Whether binding was seen depends on the method and setting. In cells and extracts the contact can be indirect. Some binding calls cover weakened binding; strength is not graded here. Sequences can lack the tags named with a protein.

T1: carbohydrate responsive element-binding protein alpha (ChREBPα), full-length, FLAG-tagged (pCMV4-FLAG-mChREBPα) (mouse) (UniProt Q99MZ3)
T1 sequence: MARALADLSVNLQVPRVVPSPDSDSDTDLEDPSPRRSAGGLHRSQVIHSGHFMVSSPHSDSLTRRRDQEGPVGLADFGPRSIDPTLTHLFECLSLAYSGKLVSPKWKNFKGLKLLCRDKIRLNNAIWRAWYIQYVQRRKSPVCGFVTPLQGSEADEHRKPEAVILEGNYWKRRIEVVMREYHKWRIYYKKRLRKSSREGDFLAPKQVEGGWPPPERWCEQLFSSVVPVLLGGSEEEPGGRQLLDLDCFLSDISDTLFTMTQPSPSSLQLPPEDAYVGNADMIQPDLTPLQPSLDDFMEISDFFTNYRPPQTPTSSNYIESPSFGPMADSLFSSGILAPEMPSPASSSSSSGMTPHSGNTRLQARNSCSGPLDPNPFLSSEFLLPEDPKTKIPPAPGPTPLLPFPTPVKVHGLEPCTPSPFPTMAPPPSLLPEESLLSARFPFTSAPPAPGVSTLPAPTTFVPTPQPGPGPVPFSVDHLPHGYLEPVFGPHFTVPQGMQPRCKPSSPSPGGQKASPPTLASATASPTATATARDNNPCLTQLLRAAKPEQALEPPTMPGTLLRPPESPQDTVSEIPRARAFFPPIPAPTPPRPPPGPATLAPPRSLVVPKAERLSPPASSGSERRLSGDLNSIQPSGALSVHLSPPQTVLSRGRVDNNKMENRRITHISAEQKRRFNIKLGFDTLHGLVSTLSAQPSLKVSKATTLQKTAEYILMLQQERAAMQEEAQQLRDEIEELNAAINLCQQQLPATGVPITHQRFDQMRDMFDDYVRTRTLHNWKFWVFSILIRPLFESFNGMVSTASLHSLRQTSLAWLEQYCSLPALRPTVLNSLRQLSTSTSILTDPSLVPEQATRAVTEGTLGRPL

T2: liver X receptor alpha (LXRα), full-length, FLAG-tagged (not stated (human or mouse cDNA cloned)) (UniProt Q13133)
T2 sequence: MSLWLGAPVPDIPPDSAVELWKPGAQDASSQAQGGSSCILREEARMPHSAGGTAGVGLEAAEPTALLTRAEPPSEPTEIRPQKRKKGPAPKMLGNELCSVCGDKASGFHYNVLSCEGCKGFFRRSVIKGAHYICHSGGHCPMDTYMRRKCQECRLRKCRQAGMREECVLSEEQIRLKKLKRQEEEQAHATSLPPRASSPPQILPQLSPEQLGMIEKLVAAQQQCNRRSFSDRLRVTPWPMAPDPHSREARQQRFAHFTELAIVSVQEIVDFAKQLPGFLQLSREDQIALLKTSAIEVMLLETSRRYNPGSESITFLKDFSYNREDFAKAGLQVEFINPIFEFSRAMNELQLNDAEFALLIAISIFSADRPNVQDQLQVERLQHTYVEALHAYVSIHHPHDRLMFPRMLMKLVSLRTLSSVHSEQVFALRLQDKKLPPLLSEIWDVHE

T3: liver X receptor beta (LXRβ), FLAG-tagged (pcDNA3-FLAG-hLXRβ) (human) (UniProt P55055)
T3 sequence: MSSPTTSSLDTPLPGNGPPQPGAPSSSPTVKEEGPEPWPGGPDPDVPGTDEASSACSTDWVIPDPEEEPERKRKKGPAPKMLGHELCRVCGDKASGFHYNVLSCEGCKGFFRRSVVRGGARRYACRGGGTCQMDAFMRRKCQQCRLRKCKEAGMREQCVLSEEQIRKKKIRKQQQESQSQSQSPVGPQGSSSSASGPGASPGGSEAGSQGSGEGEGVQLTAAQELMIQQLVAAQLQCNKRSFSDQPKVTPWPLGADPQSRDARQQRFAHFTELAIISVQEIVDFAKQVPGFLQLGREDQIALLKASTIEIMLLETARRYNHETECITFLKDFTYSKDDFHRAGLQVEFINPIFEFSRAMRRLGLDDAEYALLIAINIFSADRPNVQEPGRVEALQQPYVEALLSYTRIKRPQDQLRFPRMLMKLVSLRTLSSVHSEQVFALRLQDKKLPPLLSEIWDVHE


Assays:
Assay in all cases: co-IP; COS-1 cells transfected, cultured in 25 mM glucose; lysis in 200 mM NaCl, 20 mM HEPES pH 7.4, 1% NP-40; immunoprecipitated with ChREBP, LXRα, LXRβ or FLAG (for LID) antibodies on protein A Dynabeads, 2 h at 4 °C; immunoblot; in one panel cells treated with 0.1% DMSO or GW3965 (1 µM) for 18 h, GW3965 reduced the ChREBPα:LXRα interaction
[1] = biological target: T1, carbohydrate responsive element-binding protein alpha (ChREBPα), full-length, FLAG-tagged (pCMV4-FLAG-mChREBPα) (mouse)
[2] = biological target: T2, liver X receptor alpha (LXRα), full-length, FLAG-tagged (not stated (human or mouse cDNA cloned))
[3] = biological target: T3, liver X receptor beta (LXRβ), FLAG-tagged (pcDNA3-FLAG-hLXRβ) (human)

| Binder | binding [1] | binding [2] | binding [3] |
| --- | --- | --- | --- |
| liver X receptor alpha (LXRα), full-length, FLAG-tagged (protein, UniProt Q13133-1 1-447) MSLWLGAPVPDIPPDSAVELWKPGAQDASSQAQGGSSCILREEARMPHSAGGTAGVGLEAAEPTALLTRAEPPSEPTEIRPQKRKKGPAPKMLGNELCSVCGDKASGFHYNVLSCEGCKGFFRRSVIKGAHYICHSGGHCPMDTYMRRKCQECRLRKCRQAGMREECVLSEEQIRLKKLKRQEEEQAHATSLPPRASSPPQILPQLSPEQLGMIEKLVAAQQQCNRRSFSDRLRVTPWPMAPDPHSREARQQRFAHFTELAIVSVQEIVDFAKQLPGFLQLSREDQIALLKTSAIEVMLLETSRRYNPGSESITFLKDFSYNREDFAKAGLQVEFINPIFEFSRAMNELQLNDAEFALLIAISIFSADRPNVQDQLQVERLQHTYVEALHAYVSIHHPHDRLMFPRMLMKLVSLRTLSSVHSEQVFALRLQDKKLPPLLSEIWDVHE | binds |  |  |
| carbohydrate responsive element-binding protein alpha (ChREBPα), full-length, FLAG-tagged (pCMV4-FLAG-mChREBPα) (protein, UniProt Q99MZ3-1 1-864) MARALADLSVNLQVPRVVPSPDSDSDTDLEDPSPRRSAGGLHRSQVIHSGHFMVSSPHSDSLTRRRDQEGPVGLADFGPRSIDPTLTHLFECLSLAYSGKLVSPKWKNFKGLKLLCRDKIRLNNAIWRAWYIQYVQRRKSPVCGFVTPLQGSEADEHRKPEAVILEGNYWKRRIEVVMREYHKWRIYYKKRLRKSSREGDFLAPKQVEGGWPPPERWCEQLFSSVVPVLLGGSEEEPGGRQLLDLDCFLSDISDTLFTMTQPSPSSLQLPPEDAYVGNADMIQPDLTPLQPSLDDFMEISDFFTNYRPPQTPTSSNYIESPSFGPMADSLFSSGILAPEMPSPASSSSSSGMTPHSGNTRLQARNSCSGPLDPNPFLSSEFLLPEDPKTKIPPAPGPTPLLPFPTPVKVHGLEPCTPSPFPTMAPPPSLLPEESLLSARFPFTSAPPAPGVSTLPAPTTFVPTPQPGPGPVPFSVDHLPHGYLEPVFGPHFTVPQGMQPRCKPSSPSPGGQKASPPTLASATASPTATATARDNNPCLTQLLRAAKPEQALEPPTMPGTLLRPPESPQDTVSEIPRARAFFPPIPAPTPPRPPPGPATLAPPRSLVVPKAERLSPPASSGSERRLSGDLNSIQPSGALSVHLSPPQTVLSRGRVDNNKMENRRITHISAEQKRRFNIKLGFDTLHGLVSTLSAQPSLKVSKATTLQKTAEYILMLQQERAAMQEEAQQLRDEIEELNAAINLCQQQLPATGVPITHQRFDQMRDMFDDYVRTRTLHNWKFWVFSILIRPLFESFNGMVSTASLHSLRQTSLAWLEQYCSLPALRPTVLNSLRQLSTSTSILTDPSLVPEQATRAVTEGTLGRPL |  | binds | binds |
| ChREBPα low glucose inhibitory domain (LID), FLAG-tagged, amino acids 1-178 (domain or fragment, UniProt Q99MZ3-1 1-178) MARALADLSVNLQVPRVVPSPDSDSDTDLEDPSPRRSAGGLHRSQVIHSGHFMVSSPHSDSLTRRRDQEGPVGLADFGPRSIDPTLTHLFECLSLAYSGKLVSPKWKNFKGLKLLCRDKIRLNNAIWRAWYIQYVQRRKSPVCGFVTPLQGSEADEHRKPEAVILEGNYWKRRIEVVM |  | binds |  |
| LXRα truncation, amino acids 166-447 (hinge domain and LBD), FLAG-tagged (domain or fragment, UniProt Q13133-1 166-447) ECVLSEEQIRLKKLKRQEEEQAHATSLPPRASSPPQILPQLSPEQLGMIEKLVAAQQQCNRRSFSDRLRVTPWPMAPDPHSREARQQRFAHFTELAIVSVQEIVDFAKQLPGFLQLSREDQIALLKTSAIEVMLLETSRRYNPGSESITFLKDFSYNREDFAKAGLQVEFINPIFEFSRAMNELQLNDAEFALLIAISIFSADRPNVQDQLQVERLQHTYVEALHAYVSIHHPHDRLMFPRMLMKLVSLRTLSSVHSEQVFALRLQDKKLPPLLSEIWDVHE | binds |  |  |
